# Assay results from PubChem BioAssay AID651768 (National Center for Advancing Translational Sciences (NCATS), 2012).
# Chains of the proteins cited; added tags and fusions are not shown.
# UniProt Q14191, whole entry, looked up: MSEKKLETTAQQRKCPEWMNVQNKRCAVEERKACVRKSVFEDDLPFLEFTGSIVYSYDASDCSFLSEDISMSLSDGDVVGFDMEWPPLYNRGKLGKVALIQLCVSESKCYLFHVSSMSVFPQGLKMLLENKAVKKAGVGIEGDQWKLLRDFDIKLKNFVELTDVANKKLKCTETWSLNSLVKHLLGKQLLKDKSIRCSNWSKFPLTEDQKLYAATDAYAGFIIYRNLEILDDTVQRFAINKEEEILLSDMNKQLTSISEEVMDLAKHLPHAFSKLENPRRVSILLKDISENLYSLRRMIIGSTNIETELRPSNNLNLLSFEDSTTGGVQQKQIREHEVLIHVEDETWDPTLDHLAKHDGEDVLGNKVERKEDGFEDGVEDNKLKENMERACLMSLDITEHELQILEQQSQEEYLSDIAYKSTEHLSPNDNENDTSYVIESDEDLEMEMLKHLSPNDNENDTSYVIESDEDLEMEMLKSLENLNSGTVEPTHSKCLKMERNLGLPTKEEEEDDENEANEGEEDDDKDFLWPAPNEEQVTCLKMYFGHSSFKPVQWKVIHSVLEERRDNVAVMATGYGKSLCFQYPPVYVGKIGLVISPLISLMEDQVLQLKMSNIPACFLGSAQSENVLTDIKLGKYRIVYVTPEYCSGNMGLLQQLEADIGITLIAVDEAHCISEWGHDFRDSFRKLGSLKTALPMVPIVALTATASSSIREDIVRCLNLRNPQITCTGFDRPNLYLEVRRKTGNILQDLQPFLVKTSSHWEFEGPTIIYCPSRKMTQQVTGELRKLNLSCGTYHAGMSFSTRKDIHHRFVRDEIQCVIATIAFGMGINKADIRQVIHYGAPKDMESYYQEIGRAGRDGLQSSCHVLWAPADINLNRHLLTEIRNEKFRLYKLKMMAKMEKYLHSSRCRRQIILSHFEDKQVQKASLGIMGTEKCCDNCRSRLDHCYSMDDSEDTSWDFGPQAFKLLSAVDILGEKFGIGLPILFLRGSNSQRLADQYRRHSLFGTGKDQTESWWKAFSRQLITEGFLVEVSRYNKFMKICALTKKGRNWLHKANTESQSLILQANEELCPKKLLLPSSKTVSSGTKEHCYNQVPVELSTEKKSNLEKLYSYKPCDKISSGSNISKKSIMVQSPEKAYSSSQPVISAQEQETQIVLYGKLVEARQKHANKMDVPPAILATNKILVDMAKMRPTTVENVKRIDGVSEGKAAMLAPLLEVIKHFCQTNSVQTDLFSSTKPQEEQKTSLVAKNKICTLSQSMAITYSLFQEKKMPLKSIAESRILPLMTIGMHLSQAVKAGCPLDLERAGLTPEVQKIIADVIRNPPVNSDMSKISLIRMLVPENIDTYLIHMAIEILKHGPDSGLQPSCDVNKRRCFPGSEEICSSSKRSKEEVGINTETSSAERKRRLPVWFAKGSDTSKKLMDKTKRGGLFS
# Screen size: about 360,000 compounds; about 1,700 (0.47%) were called active. This list was built around the results that the source calls inconclusive (neither active nor inactive); the mix of calls is not that of the screen. Calls come from the whole dose curve; as a rule, active = well fitted inhibition curve with a large enough effect; inconclusive = small, poorly fitted or top-dose-only effect; inactive = no such curve, though single readings can be large or run the other way. Where the call is inconclusive, the potency comes from a doubtful curve fit.
# Molecular target: Bifunctional 3'-5' exonuclease/ATP-dependent helicase WRN (Homo sapiens) (UniProt Q14191)
# Assay: qHTS for Inhibitors of WRN Helicase; note: nearly all actives have a fitted effect of over 55% in size
# Conditions: WRN helicase unwinding, fluorescent forked duplex, kinetic; activity change, negative = inhibition: at 114 µM (top of the series) unless noted
# How it was run: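 WRN at 20 nM final was preincubated with compound for 15 min at room temperature; reaction started with 100 nM forked duplex oligonucleotide carrying fluorophore and quencher plus 2 mM ATP (final). Unwinding followed kinetically by red fluorescence (ex 525/em 598 nm).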
# % is set by controls: 0 for no effect and ±100 for the full control effect; potency is the fitted concentration of half-maximal effect.
SMILES,Potency,"activity change, negative = inhibition"
CCOC(=O)C1CCCN(C(=O)c2ccc(-c3ccc([N+](=O)[O-])cc3)o2)C1 (configuration not stated),"inconclusive: 79.4 µM [inhibitor, single point]",–
N#CC1=C(N)Oc2n[nH]c(-c3cccnc3)c2C1c1ccc([N+](=O)[O-])o1 (configuration not stated),"inconclusive: 44.7 µM [inhibitor, full curve]",–
COCCn1c(C)cc(C(=O)COC(=O)C2CC(=O)N(CCc3ccc(OC)c(OC)c3)C2)c1C (configuration not stated),"inconclusive: 89.1 µM [inhibitor, single point]",–
Cc1ccc(C(=O)N2CCN(c3ccc(F)cc3)CC2)cc1S(=O)(=O)N1CCCCC1,"inconclusive: 89.1 µM [inhibitor, single point]",–
CCOC(=O)c1sc(=S)n(CC)c1N,–,inactive: 0.203%
CCOC(=O)c1ccc(N2C(=O)C=CC2=O)cc1,"inconclusive: 50.1 µM [inhibitor, partial curve]",–
Cc1noc(NS(=O)(=O)c2ccc(NC(=O)CSc3nnc4c(n3)[nH]c3ccccc34)cc2)c1C,active: 89.1 µM,–
CCN1CCN(CC#CCOc2ccccc2OC)CC1,"inconclusive: 79.4 µM [inhibitor, partial curve]",–
CN(CC1COCCO1)C(=O)c1cc(COc2c(F)cccc2F)on1 (configuration not stated),"inconclusive: 89.1 µM [inhibitor, single point]",–
N#C/C(=C/c1ccc(O)c(O)c1)c1nc2ccccc2[nH]1,active: 35.5 µM,–
CCOC(=O)C1=C(C)N=c2s/c(=C\c3ccc(OCC(=O)O)cc3)c(=O)n2C1c1ccccc1OC (configuration not stated),–,inactive: -2.95%
Cc1ccc(C2=NOC(=O)/C2=C\c2ccccc2)cc1,–,inactive: -4.99%
CCCSc1nnc(NC(=O)c2sc3nc(-c4cccs4)ccc3c2N)s1,"inconclusive: 50.1 µM [inhibitor, partial curve]",–
CCc1cccc(NC(=O)CCS(=O)(=O)c2ccc(Br)cc2)c1,"inconclusive: 35.5 µM [inhibitor, partial curve]",–
OC(c1ccc(Cl)c(F)c1)c1ncc(-c2ccc(Oc3ccccc3)cc2)[nH]1 (configuration not stated),–,inactive: -5.95%
Cc1cc(=O)n(Cc2ccccc2)c(O)c1C#N,"inconclusive: 10 µM [inhibitor, full curve, poor fit]",–
CCOc1ccc(NC(=O)CC2SC(=O)N(c3ccccc3)C2=O)cc1 (configuration not stated),"inconclusive: 44.7 µM [inhibitor, partial curve]",–
CC1OC(CC(=O)O)CC2=C1C(=O)c1c(O)cccc1C2=O (configuration not stated),active: 11.2 µM,–
CC(=O)Oc1cc2cccc(OC(C)=O)c(=O)c2c(OC(C)=O)c1OC(C)=O,active: 8.91 µM,–
Cn1c(=O)c2c(=O)cc(NNC(=O)CC#N)[nH]c2n(C)c1=O,–,inactive: 4.56%
CC1=C(C(=O)OCCNC(=O)c2ccccc2O)C(c2ccccc2[N+](=O)[O-])C(C(=O)OCC2CCCO2)=C(C)N1 (configuration not stated),"inconclusive: 20 µM [inhibitor, full curve]",–
CCOc1cc(/C=C2/NC(=O)NC2=O)cc([N+](=O)[O-])c1O,"inconclusive: 15.8 µM [inhibitor, full curve]",–
CC1=CN2C(=N)/C(=C\c3cn(CCCOc4ccccc4)c4ccccc34)C(=O)N=C2S1,"inconclusive: 79.4 µM [inhibitor, single point]",–

SMILES,Potency,"activity change, negative = inhibition"
COc1cc(/C=C2\SC(=S)N(NS(=O)(=O)c3ccc(C)cc3)C2=O)ccc1O,active: 44.7 µM,–
N#C/C(=C\c1ccc(O)c(O)c1)C(=O)Nc1cccc2ncccc12,active: 14.1 µM,–
CN(C(=O)COC(=O)CNC(=O)c1ccc2ccccc2c1)c1c(N)n(Cc2ccccc2)c(=O)[nH]c1=O,"inconclusive: 50.1 µM [inhibitor, partial curve, poor fit]",–
COc1ccc(-c2cc(C(F)(F)F)nc(S(=O)(=O)CCCC(=O)Nc3cccnc3Cl)n2)cc1OC,"inconclusive: 89.1 µM [inhibitor, single point]",–
O=[N+]([O-])c1cc(S(=O)(=O)C(F)(F)F)ccc1N1CCN(c2ccccc2)CC1,–,inactive: -3.49%
Cc1[nH][nH]c(=O)c1C(c1c(C)[nH][nH]c1=O)c1cn(Cc2ccc(F)cc2)c2ccccc12,–,inactive: -5.1% [at 11.6 µM]
Cc1ccc(/C=C/C(=O)NCc2ccc(S(N)(=O)=O)cc2)o1,"inconclusive: 79.4 µM [inhibitor, partial curve]",–
O=C(CSc1nnc(SCc2ccccc2Cl)s1)N/N=C/c1c[nH]c2ccccc12,–,inactive: -34.1%
Cc1nc(NC(=O)CCc2ccccc2)sc1C,"inconclusive: 89.1 µM [inhibitor, single point]",–
Cc1cccc(C)c1OCC(=O)Nc1ccc(S(=O)(=O)Nc2ccccn2)cc1,–,inactive: -16.8%
CC(C)(C=O)C1=CC(=O)c2ccccc2C1=O,active: 50.1 µM,–
C=CCOc1ccc2cccc(/C=N/NC(=O)c3cc4cc([N+](=O)[O-])ccc4s3)c2c1,–,inactive: -3.6%
O=C(/C=C/c1ccccc1)Nc1cccc(S(=O)(=O)Nc2ccccc2F)c1,active: 39.8 µM,–
CSC1=NSC2=NC(=O)/C(=C\c3ccc(OC(=O)c4ccco4)cc3)C(=N)N12,"inconclusive: 56.2 µM [inhibitor, partial curve]",–
Cc1c(C(=O)Nc2ccc(S(=O)(=O)Nc3ncccn3)cc2)oc2ccc(F)cc12,"inconclusive: 79.4 µM [inhibitor, single point]",–
CCOC(=O)c1c(S(=O)(=O)Nc2ccc(C)cn2)c(C)n(C)c1C,–,inactive: -2.44%
CNC(=O)c1nnsc1S(=O)(=O)c1ccc(Cl)cc1,active: 7.94 µM,–
Cc1ccccc1NC(=O)CSc1nc2[nH]c(=O)cc(O)c2s1,"inconclusive: 25.1 µM [inhibitor, full curve, poor fit]",–
COC(=O)C1=C(SC)N(c2ccccc2)C(c2ccccc2)CC1=O (configuration not stated),"inconclusive: 10 µM [inhibitor, partial curve]",–
O=C(CCc1nc2ccccc2c(=O)[nH]1)OCc1nnc(-c2ccccc2)o1,–,inconclusive: -37.6% [inhibitor] [at 57.1 µM]
O=C1/C(=C/c2ccco2)SC(=S)N1c1cccnc1,active: 12.6 µM,–
COc1cccc(C(=O)Nc2ccc3c(c2)C(=O)c2ccccc2C3=O)c1,"inconclusive: 44.7 µM [inhibitor, partial curve]",–
COC(=O)c1c(NC(=O)c2ccc(Br)s2)sc2c1CCC2,"inconclusive: 44.7 µM [inhibitor, partial curve]",–

SMILES,Potency,"activity change, negative = inhibition"
CCc1cc2c(SCC(=O)N3CCCC3=O)ncnc2s1,"inconclusive: 20 µM [inhibitor, single point]",–
COc1ccc(-n2cnc(=S)[nH]c2=S)cc1,–,inconclusive: -45.8% [inhibitor]
CCOC(=O)CNc1nnc(SCC(=O)OCC)[nH]c1=O,"inconclusive: 100 µM [inhibitor, single point]",–
Cc1ccc(NC(=O)CN2C(=O)S/C(=C\c3cccn3-c3cccc(C(=O)O)c3)C2=O)c(C)c1,"inconclusive: 63.1 µM [inhibitor, partial curve, poor fit]",–
CC[n+]1c(/C=C/C=C/N(C(C)=O)c2ccccc2)sc2ccccc21,active: 50.1 µM,–
O=C1C(SCCO)=C(SCCO)C(=O)c2ccccc21,active: 79.4 µM,–
Cc1cc(O)c(C(C)C)cc1N=Cc1ccc(N(C)C)cc1,"inconclusive: 70.8 µM [inhibitor, single point]",–
O=C(CSc1nc(NS(=O)(=O)c2ccccc2)cc(=O)[nH]1)Nc1ccc(F)cc1,"inconclusive: 50.1 µM [inhibitor, partial curve]",–
Cc1ccccc1C1=C/C(=C(\SS/C(C(=O)c2ccc(OCC(=O)O)c(Cl)c2Cl)=C2\C=C(c3ccccc3C)SS2)C(=O)c2ccc(OCC(=O)O)c(Cl)c2Cl)SS1,active: 22.4 µM,–
Cc1cccc(CS(=O)(=O)c2nnc([C@H](Cc3ccccc3)NC(=O)OC(C)(C)C)o2)c1,–,inactive: -32.9%
COc1ccccc1N1CCN(C(=O)COc2ccc(C)cc2Br)CC1,–,inactive: -6.49%
C=CCOC(=O)c1[nH]c2c(c1C)C(=O)CC(c1ccco1)C2 (configuration not stated),"inconclusive: 56.2 µM [inhibitor, partial curve]",–
Cc1cc(=O)[nH]c(N/N=C/c2ccc(OC(=O)c3ccco3)cc2)n1,"inconclusive: 23.8 µM [inhibitor, single point]",–
CCCN(CC(=O)Nc1ccccc1OC)C(=O)c1cc(S(=O)(=O)NCc2ccccc2)ccc1C,"inconclusive: 79.4 µM [inhibitor, single point]",–
COCCN(C(=S)Nc1c(C)cc(C)cc1C)C(C)c1cccnc1 (configuration not stated),"inconclusive: 56.2 µM [inhibitor, partial curve, poor fit]",–
CCCC[n+]1ccn(-c2nc3ccccc3nc2[N-]S(=O)(=O)c2ccc(Cl)cc2)c1,"inconclusive: 6.31 µM [inhibitor, full curve, poor fit]",–
CN1C(=CC=C2C=C(I)C(=O)C(I)=C2)C(C)(C)c2ccccc21,active: 4.74 µM,–
Cc1ccc(S(=O)(=O)SC/C=C/CSS(=O)(=O)c2ccc(C)cc2)cc1,"inconclusive: 39.8 µM [inhibitor, partial curve]",–
COc1ccc(OC)c(C2Nc3c(Cl)ccc(C(=O)O)c3C3C=CCC32)c1 (configuration not stated),"inconclusive: 31.6 µM [inhibitor, single point]",–
COc1ccc(NS(=O)(=O)c2ccc(NC(=S)NC(=O)/C=C/c3ccccc3)cc2)nn1,"inconclusive: 25.1 µM [inhibitor, single point]",–
COc1ccc(NC(=O)Cn2nnc(C(=O)Nc3ccccc3C)c2N)cc1,"inconclusive: 39.8 µM [inhibitor, single point]",–

# Complete entries, quoted from the list:
# CSC1=NSC2=NC(=O)/C(=C\c3ccc(OC(=O)c4ccco4)cc3)C(=N)N12 in the list: Potency: inconclusive: 56.2 µM [inhibitor, partial curve]
# Cc1cc(=O)n(Cc2ccccc2)c(O)c1C#N in the list: Potency: inconclusive: 10 µM [inhibitor, full curve, poor fit]
# CC(=O)Oc1cc2cccc(OC(C)=O)c(=O)c2c(OC(C)=O)c1OC(C)=O in the list: Potency: active: 8.91 µM
